According to the supplement of paper PMC10849652:
Some of the results follow.

Amino acid sequences for entries named in this document (tags omitted). A change or cut given only in a name is not applied to a line headed by its entry.
UniProt Q9BUL9: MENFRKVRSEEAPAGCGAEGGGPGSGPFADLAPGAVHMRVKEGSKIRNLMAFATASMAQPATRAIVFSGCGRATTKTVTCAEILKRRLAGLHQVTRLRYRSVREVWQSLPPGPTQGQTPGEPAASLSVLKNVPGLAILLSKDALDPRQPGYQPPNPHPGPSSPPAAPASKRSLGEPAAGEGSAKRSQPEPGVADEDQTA
UniProt Q9BWH6: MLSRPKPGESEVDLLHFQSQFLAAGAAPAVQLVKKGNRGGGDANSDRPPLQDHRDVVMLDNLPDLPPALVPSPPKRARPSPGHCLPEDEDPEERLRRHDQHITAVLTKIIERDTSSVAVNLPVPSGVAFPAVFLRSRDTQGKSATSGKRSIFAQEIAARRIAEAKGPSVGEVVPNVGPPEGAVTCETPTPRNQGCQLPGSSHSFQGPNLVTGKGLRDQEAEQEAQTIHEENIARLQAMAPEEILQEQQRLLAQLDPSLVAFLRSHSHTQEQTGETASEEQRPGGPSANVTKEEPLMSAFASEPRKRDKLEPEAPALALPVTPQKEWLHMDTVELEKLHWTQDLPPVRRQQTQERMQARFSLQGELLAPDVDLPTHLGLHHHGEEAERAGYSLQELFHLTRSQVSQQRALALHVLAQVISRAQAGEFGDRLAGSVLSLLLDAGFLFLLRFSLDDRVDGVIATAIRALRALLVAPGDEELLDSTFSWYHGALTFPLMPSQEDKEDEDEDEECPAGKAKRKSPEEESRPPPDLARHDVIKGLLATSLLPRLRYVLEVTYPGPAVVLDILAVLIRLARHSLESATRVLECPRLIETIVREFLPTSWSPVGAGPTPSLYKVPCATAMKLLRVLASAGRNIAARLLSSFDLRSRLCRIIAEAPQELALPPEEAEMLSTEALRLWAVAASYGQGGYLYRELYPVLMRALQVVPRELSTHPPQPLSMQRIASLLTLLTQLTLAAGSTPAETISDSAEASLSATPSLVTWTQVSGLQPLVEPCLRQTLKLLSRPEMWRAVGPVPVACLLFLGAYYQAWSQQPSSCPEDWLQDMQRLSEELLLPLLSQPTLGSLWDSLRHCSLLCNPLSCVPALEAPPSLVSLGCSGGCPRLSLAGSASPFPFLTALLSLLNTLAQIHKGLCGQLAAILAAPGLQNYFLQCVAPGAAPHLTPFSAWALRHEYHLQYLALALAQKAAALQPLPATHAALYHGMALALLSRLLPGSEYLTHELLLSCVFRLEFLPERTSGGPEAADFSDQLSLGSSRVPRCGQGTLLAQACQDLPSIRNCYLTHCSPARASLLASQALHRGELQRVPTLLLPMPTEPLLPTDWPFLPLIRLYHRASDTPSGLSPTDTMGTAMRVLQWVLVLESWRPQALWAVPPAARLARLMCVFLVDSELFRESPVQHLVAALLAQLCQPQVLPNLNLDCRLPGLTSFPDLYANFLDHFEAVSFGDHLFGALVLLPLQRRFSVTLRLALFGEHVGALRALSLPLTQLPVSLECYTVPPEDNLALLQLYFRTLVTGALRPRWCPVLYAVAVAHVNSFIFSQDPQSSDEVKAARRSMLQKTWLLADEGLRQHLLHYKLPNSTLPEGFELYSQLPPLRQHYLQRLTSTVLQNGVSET
UniProt P23443: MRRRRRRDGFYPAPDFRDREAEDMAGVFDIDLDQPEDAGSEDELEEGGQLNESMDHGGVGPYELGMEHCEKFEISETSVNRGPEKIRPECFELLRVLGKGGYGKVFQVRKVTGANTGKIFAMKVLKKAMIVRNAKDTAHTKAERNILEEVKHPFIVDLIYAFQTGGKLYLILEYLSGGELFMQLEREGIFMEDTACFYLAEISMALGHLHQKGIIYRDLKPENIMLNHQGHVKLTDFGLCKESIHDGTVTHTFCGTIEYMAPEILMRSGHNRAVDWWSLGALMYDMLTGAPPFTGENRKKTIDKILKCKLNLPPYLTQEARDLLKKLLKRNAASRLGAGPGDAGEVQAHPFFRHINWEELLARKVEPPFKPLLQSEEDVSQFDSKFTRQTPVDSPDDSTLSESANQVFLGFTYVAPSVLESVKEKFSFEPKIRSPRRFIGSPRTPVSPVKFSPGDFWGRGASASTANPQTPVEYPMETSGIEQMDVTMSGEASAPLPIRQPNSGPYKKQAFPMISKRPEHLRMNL
UniProt P05386, whole entry, looked up: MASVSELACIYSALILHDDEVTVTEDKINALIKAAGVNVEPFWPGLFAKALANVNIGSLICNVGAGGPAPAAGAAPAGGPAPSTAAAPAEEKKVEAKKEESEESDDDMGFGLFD
UniProt P04843: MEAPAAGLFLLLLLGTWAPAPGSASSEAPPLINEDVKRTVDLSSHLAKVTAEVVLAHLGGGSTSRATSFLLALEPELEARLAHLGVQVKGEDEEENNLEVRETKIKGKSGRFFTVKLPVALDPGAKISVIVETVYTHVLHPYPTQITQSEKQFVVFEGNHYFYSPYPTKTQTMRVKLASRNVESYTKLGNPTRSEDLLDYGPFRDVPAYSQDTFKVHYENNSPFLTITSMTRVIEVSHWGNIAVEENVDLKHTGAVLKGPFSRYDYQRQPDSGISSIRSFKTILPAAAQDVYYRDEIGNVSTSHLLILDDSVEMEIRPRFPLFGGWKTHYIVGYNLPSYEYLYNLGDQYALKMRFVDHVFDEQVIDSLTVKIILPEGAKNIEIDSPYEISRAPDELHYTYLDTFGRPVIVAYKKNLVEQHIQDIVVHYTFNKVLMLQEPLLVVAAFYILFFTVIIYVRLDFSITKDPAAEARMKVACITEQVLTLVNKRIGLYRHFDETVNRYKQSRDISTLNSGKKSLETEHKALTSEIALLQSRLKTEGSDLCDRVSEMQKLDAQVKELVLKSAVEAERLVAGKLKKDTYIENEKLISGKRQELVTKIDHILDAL
UniProt Q9NQG5: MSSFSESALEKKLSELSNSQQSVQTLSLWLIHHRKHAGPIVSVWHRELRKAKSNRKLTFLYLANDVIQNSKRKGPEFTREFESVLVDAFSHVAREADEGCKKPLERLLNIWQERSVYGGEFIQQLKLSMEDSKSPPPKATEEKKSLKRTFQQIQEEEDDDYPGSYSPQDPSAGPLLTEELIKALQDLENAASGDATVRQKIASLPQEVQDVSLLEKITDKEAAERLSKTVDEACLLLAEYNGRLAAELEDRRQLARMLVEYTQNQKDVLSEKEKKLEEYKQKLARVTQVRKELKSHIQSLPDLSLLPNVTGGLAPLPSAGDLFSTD
UniProt O75116: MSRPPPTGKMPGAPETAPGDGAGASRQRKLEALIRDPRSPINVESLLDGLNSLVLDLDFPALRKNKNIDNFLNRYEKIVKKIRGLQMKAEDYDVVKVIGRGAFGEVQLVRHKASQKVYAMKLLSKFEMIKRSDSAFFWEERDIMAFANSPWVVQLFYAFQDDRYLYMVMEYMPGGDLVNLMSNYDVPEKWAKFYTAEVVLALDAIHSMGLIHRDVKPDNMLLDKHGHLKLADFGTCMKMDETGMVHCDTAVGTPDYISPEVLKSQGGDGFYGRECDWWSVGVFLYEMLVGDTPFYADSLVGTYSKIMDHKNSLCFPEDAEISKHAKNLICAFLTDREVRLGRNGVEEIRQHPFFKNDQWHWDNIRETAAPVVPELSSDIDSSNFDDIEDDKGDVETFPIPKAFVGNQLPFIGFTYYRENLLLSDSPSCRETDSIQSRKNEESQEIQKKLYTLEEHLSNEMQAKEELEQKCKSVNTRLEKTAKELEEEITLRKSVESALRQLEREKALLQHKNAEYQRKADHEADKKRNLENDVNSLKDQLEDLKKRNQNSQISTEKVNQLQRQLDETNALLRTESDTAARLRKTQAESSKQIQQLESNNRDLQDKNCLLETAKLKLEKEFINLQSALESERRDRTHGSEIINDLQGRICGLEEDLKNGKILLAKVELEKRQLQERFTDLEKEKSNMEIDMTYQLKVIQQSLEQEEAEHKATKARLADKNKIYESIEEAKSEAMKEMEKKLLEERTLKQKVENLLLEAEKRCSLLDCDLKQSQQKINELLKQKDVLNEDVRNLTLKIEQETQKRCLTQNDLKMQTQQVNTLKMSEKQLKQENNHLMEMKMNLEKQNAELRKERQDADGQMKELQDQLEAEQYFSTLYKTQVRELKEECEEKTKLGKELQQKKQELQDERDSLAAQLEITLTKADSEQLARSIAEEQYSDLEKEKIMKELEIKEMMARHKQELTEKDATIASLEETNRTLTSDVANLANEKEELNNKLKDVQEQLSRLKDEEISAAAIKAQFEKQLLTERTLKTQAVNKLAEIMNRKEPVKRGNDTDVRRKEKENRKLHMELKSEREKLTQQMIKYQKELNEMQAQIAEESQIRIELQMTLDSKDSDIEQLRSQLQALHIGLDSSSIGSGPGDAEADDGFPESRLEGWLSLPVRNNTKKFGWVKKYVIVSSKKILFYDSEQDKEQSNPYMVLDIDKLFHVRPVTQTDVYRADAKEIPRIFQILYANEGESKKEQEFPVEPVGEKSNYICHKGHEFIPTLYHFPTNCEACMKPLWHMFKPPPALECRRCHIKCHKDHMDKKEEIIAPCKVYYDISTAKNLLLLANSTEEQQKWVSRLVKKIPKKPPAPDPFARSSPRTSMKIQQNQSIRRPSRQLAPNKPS

Experiments:
Experiment in all cases: log2 fold change, soluble protein after heating vs DMSO (PISA); higher = thermal stabilisation; K562 cells, 10 uM, 30 min; active = over 0.2 and 3.5 SD of the protein, either way, in both replicates (recomputed)
saracatinib = compound: CN1CCN(CCOc2cc(OC3CCOCC3)c3c(Nc4c(Cl)ccc5c4OCO5)ncnc3c2)CC1 [saracatinib]
Outline: (§1)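 K562 cells at 2×10^6 cells/mL were exposed to 10 μM compound for 30 min, then aliquots were heated for 3 min across 48°C-58°C, pooled, and extracted in PBS containing 0.5% NP-40 at 4°C. The supernatant after 21,000xg for 90 min was taken as soluble protein and measured by TMTpro 16plex LC-MS/MS with channel sums equalised. Thermal stability is reported relative to control samples, with values from duplicates. Fold changes are given on a log2 scale.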

sotrastaurin = compound: CN1CCN(c2nc(C3=C(c4c[nH]c5ccccc45)C(=O)NC3=O)c3ccccc3n2)CC1 [sotrastaurin]
Outline: as §1

alvocidib = compound: CN1CC[C@H](c2c(O)cc(O)c3c(=O)cc(-c4ccccc4Cl)oc23)[C@H](O)C1 [alvocidib]
Outline: as §1

Tubastatin A = compound: CN1CCc2c(c3ccccc3n2Cc2ccc(C(=O)NO)cc2)C1 [Tubastatin A]
Outline: as §1

[1] = compound: CNC(=O)C1=CC=CC=C1NC2=NC(=NC=C2Cl)NC3=C(C=C(C=C3)N4CCOCC4)OC
Outline: as §1

defactinib = compound: CNC(=O)c1ccc(Nc2ncc(C(F)(F)F)c(NCc3nccnc3N(C)S(C)(=O)=O)n2)cc1 [defactinib]
Outline: as §1

rucaparib = compound: CNCc1ccc(-c2[nH]c3cc(F)cc4c3c2CCNC4=O)cc1 [rucaparib]
Outline: as §1

[2] = compound: CNc1nc(-c2ccc3c(N)n[nH]c3c2)cc(N2C[C@@H](C(=O)NC3CCCCC3)CC[C@H]2C)n1
Outline: as §1

encorafenib = compound: COC(=O)N[C@@H](C)CNc1nccc(-c2cn(C(C)C)nc2-c2cc(Cl)cc(NS(C)(=O)=O)c2F)n1 [encorafenib]
Outline: as §1

[3] = compound: COC(=O)[C@H](CCSC)NC(=O)C1=C(C=C(C=C1)NC[C@H](CS)N)C2=CC=CC=C2
Outline: as §1

Measured: log2 fold change

RPS29 (UniProt P62273)
inactive: saracatinib -0.066 | sotrastaurin -0.014 | alvocidib 0.173 | Tubastatin A 0.09 | [1] 0.167 | defactinib 0.399 | rucaparib 0.153 | [2] 0.007 | encorafenib -0.043 | [3] -0.001

RPP25 (UniProt Q9BUL9)
inactive: saracatinib -0.016 | sotrastaurin 0.042 | alvocidib 0.019 | Tubastatin A -0.006 | [1] 0.004 | defactinib -0.041 | rucaparib 0.099 | [2] -0.051 | encorafenib 0.03 | [3] 0.021

RPLP0 (UniProt P05388)
inactive: saracatinib -0.158 | sotrastaurin -0.035 | alvocidib 0.425 | Tubastatin A 0.22 | [1] 0.014 | defactinib 0.556 | rucaparib 0.424 | [2] 0.223 | encorafenib 0.192 | [3] 0.008

RPL5 (UniProt P46777)
inactive: saracatinib -0.035 | sotrastaurin -0.014 | alvocidib 0.223 | Tubastatin A 0.085 | [1] 0.051 | defactinib 0.238 | rucaparib 0.298 | [2] 0.102 | encorafenib 0.118 | [3] -0.004

RPS24 isoform 4 (UniProt P62847)
inactive: saracatinib -0.065 | sotrastaurin -0.011 | alvocidib 0.218 | Tubastatin A 0.12 | [1] 0.043 | defactinib 0.275 | rucaparib 0.172 | [2] 0.121 | encorafenib 0.082 | [3] 0.01

RPL24 (UniProt P83731)
inactive: saracatinib -0.069 | sotrastaurin -0.034 | alvocidib 0.337 | Tubastatin A 0.108 | [1] 0.061 | defactinib 0.358 | rucaparib 0.388 | [2] 0.157 | encorafenib 0.104 | [3] -0.038

RPL4 (UniProt P36578)
inactive: saracatinib -0.131 | sotrastaurin -0.076 | alvocidib 0.446 | Tubastatin A 0.256 | [1] 0.064 | defactinib 0.628 | rucaparib 0.5 | [2] 0.23 | encorafenib 0.236 | [3] -0.04

RPAP1 (UniProt Q9BWH6)
inactive: saracatinib 0.01 | sotrastaurin 0.028 | alvocidib -0.076 | Tubastatin A 0.029 | [1] -0.016 | defactinib -0.12 | rucaparib 0.007 | [2] 0.025 | encorafenib -0.013 | [3] -0.025

RPS6KB1 (UniProt P23443)
inactive: saracatinib 0.072 | sotrastaurin -0.018 | alvocidib -0.042 | Tubastatin A -0.003 | [1] 0.008 | defactinib -0.038 | rucaparib -0.045 | [2] -0.007 | encorafenib 0.006 | [3] 0.01

RPL17 isoform 3 (UniProt P18621)
inactive: saracatinib -0.054 | sotrastaurin -0.067 | alvocidib 0.309 | Tubastatin A 0.135 | [1] 0.058 | defactinib 0.353 | rucaparib 0.579 | [2] 0.127 | encorafenib 0.086 | [3] 0.038

Taken from the results shown (9 entries):
RPP25 (UniProt Q9BUL9)
inactive: saracatinib -0.016 | sotrastaurin 0.042 | alvocidib 0.019 | Tubastatin A -0.006 | [1] 0.004 | defactinib -0.041 | rucaparib 0.099 | [2] -0.051 | encorafenib 0.03 | [3] 0.021

RPLP0 (UniProt P05388)
inactive: saracatinib -0.158 | sotrastaurin -0.035 | alvocidib 0.425 | Tubastatin A 0.22 | [1] 0.014 | defactinib 0.556 | rucaparib 0.424 | [2] 0.223 | encorafenib 0.192 | [3] 0.008

RPL5 (UniProt P46777)
inactive: saracatinib -0.035 | sotrastaurin -0.014 | alvocidib 0.223 | Tubastatin A 0.085 | [1] 0.051 | defactinib 0.238 | rucaparib 0.298 | [2] 0.102 | encorafenib 0.118 | [3] -0.004

RPS24 isoform 4 (UniProt P62847)
inactive: saracatinib -0.065 | sotrastaurin -0.011 | alvocidib 0.218 | Tubastatin A 0.12 | [1] 0.043 | defactinib 0.275 | rucaparib 0.172 | [2] 0.121 | encorafenib 0.082 | [3] 0.01

RPL24 (UniProt P83731)
inactive: saracatinib -0.069 | sotrastaurin -0.034 | alvocidib 0.337 | Tubastatin A 0.108 | [1] 0.061 | defactinib 0.358 | rucaparib 0.388 | [2] 0.157 | encorafenib 0.104 | [3] -0.038

RPL4 (UniProt P36578)
inactive: saracatinib -0.131 | sotrastaurin -0.076 | alvocidib 0.446 | Tubastatin A 0.256 | [1] 0.064 | defactinib 0.628 | rucaparib 0.5 | [2] 0.23 | encorafenib 0.236 | [3] -0.04

RPAP1 (UniProt Q9BWH6)
inactive: saracatinib 0.01 | sotrastaurin 0.028 | alvocidib -0.076 | Tubastatin A 0.029 | [1] -0.016 | defactinib -0.12 | rucaparib 0.007 | [2] 0.025 | encorafenib -0.013 | [3] -0.025

RPS6KB1 (UniProt P23443)
inactive: saracatinib 0.072 | sotrastaurin -0.018 | alvocidib -0.042 | Tubastatin A -0.003 | [1] 0.008 | defactinib -0.038 | rucaparib -0.045 | [2] -0.007 | encorafenib 0.006 | [3] 0.01

RPL17 isoform 3 (UniProt P18621)
inactive: saracatinib -0.054 | sotrastaurin -0.067 | alvocidib 0.309 | Tubastatin A 0.135 | [1] 0.058 | defactinib 0.353 | rucaparib 0.579 | [2] 0.127 | encorafenib 0.086 | [3] 0.038

Carrying on.

RPLP1 (UniProt P05386)
inactive: saracatinib -0.133 | sotrastaurin 0.13 | alvocidib 0.372 | Tubastatin A 0.235 | [1] 0.092 | defactinib 0.293 | rucaparib 0.398 | [2] 0.125 | encorafenib 0.147 | [3] 0.159

RPL22 (UniProt P35268)
inactive: saracatinib -0.102 | sotrastaurin -0.004 | alvocidib 0.278 | Tubastatin A 0.106 | [1] 0.05 | defactinib 0.25 | rucaparib 0.252 | [2] 0.096 | encorafenib 0.098 | [3] 0.031

RPL23A (UniProt P62750)
inactive: saracatinib -0.117 | sotrastaurin -0.009 | alvocidib 0.276 | Tubastatin A 0.094 | [1] 0.061 | defactinib 0.307 | rucaparib 0.315 | [2] 0.133 | encorafenib 0.094 | [3] -0.018

RPL7A (UniProt P62424)
inactive: saracatinib -0.16 | sotrastaurin -0.035 | alvocidib 0.425 | Tubastatin A 0.213 | [1] 0.075 | defactinib 0.622 | rucaparib 0.504 | [2] 0.224 | encorafenib 0.231 | [3] 0.043

RPS8 (UniProt P62241)
inactive: saracatinib -0.079 | sotrastaurin 0 | alvocidib 0.263 | Tubastatin A 0.138 | [1] 0.079 | defactinib 0.338 | rucaparib 0.279 | [2] 0.134 | encorafenib 0.106 | [3] 0.02

RPN1 (UniProt P04843)
inactive: saracatinib -0.02 | sotrastaurin 0 | alvocidib -0.016 | Tubastatin A 0.005 | [1] -0.002 | defactinib -0.012 | rucaparib -0.016 | [2] -0.042 | encorafenib 0.008 | [3] 0

RPL12 (UniProt P30050)
inactive: saracatinib -0.117 | sotrastaurin -0.005 | alvocidib 0.401 | Tubastatin A 0.193 | [1] -0.03 | defactinib 0.522 | rucaparib 0.429 | [2] 0.202 | encorafenib 0.205 | [3] 0.075

RPL18A (UniProt Q02543)
inactive: saracatinib -0.21 | sotrastaurin -0.032 | alvocidib 0.52 | Tubastatin A 0.264 | [1] 0.018 | defactinib 0.678 | rucaparib 0.54 | [2] 0.226 | encorafenib 0.236 | [3] 0.026

RPS26 (UniProt P62854)
inactive: saracatinib -0.072 | sotrastaurin -0.027 | alvocidib 0.35 | Tubastatin A 0.098 | [1] 0.06 | defactinib 0.397 | rucaparib 0.327 | [2] 0.105 | encorafenib 0.208 | [3] 0.012

RPRD1B (UniProt Q9NQG5)
inactive: saracatinib -0.014 | sotrastaurin -0.126 | Tubastatin A -0.039 | [1] 0.055 | defactinib -0.09 | rucaparib -0.116 | [2] -0.011 | encorafenib 0.04 | [3] -0.004

RPS16 (UniProt P62249)
inactive: saracatinib -0.085 | sotrastaurin 0.004 | Tubastatin A 0.05 | [1] 0.108 | defactinib 0.185 | rucaparib 0.126 | [2] 0.056 | encorafenib 0.033 | [3] 0.004

RPS14 (UniProt P62263)
inactive: saracatinib 0.027 | sotrastaurin -0.003 | Tubastatin A 0.123 | [1] 0.056 | defactinib 0.113 | rucaparib 0.107 | [2] 0.069 | encorafenib 0.013 | [3] -0.084

RPS9 (UniProt P46781)
inactive: saracatinib -0.044 | sotrastaurin -0.015 | Tubastatin A 0.119 | [1] 0.083 | defactinib 0.226 | rucaparib 0.108 | [2] 0.095 | encorafenib 0.118 | [3] -0.027

RPS6 (UniProt P62753)
inactive: saracatinib -0.056 | sotrastaurin 0 | alvocidib 0.374 | Tubastatin A 0.153 | [1] 0.079 | defactinib 0.283 | rucaparib 0.302 | [2] 0.265 | encorafenib 0.183 | [3] -0.142

ROCK2 (UniProt O75116)
inactive: saracatinib 0.02 | sotrastaurin -0.096 | Tubastatin A -0.001 | [1] -0.062 | defactinib -0.097 | rucaparib -0.027 | [2] 0.212 | encorafenib 0.042 | [3] -0.003

RPL21 (UniProt P46778)
inactive: saracatinib -0.165 | sotrastaurin -0.009 | alvocidib 0.533 | Tubastatin A 0.242 | [1] 0.029 | defactinib 0.685 | rucaparib 0.487 | [2] 0.186 | encorafenib 0.222 | [3] 0.006

RPL34 (UniProt P49207)
inactive: saracatinib -0.172 | sotrastaurin 0.026 | alvocidib 0.46 | Tubastatin A 0.191 | [1] 0.099 | defactinib 0.528 | rucaparib 0.435 | [2] 0.276 | encorafenib 0.205 | [3] -0.059

RPS13 (UniProt P62277)
inactive: saracatinib -0.149 | sotrastaurin 0 | Tubastatin A 0.106 | [1] 0.097 | defactinib 0.339 | rucaparib 0.261 | [2] 0.111 | encorafenib 0.137 | [3] 0.031

RPS27A (UniProt P62979)
inactive: saracatinib 0.029 | sotrastaurin 0.107 | Tubastatin A -0.013 | [1] 0.05 | defactinib 0.227 | rucaparib 0.105 | [2] 0.043 | encorafenib -0.007 | [3] 0.156
